Measured values from patent publication US12303591B2, “Tumescent infiltration drug delivery of high subcutaneous drug concentrations with prolonged local and systemic effects and minimal local or systemic toxicity” (priority 2015, dated 2025).

Columns and labels:
[1] = in vivo; cited from earlier work
[2] = tumescent lidocaine

CCN(CC)CC(=O)Nc1c(C)cccc1C [Lidocaine]
clinically safe serum lidocaine concentrations [1]: ≤ 5 µg/mL | time required for systemic absorption [2]: ≥ 24 h
